From publication PMC4483767
Results are given in words; binding and its absence hold for the method and conditions named. In cells and extracts the contact can be indirect. Some entries that bind do so weakly or less than the wild type. One block for each binder: values may come before it.

Protein sequences, listed by entry. Tags and fused reporters are not part of them.
UniProt Q15797: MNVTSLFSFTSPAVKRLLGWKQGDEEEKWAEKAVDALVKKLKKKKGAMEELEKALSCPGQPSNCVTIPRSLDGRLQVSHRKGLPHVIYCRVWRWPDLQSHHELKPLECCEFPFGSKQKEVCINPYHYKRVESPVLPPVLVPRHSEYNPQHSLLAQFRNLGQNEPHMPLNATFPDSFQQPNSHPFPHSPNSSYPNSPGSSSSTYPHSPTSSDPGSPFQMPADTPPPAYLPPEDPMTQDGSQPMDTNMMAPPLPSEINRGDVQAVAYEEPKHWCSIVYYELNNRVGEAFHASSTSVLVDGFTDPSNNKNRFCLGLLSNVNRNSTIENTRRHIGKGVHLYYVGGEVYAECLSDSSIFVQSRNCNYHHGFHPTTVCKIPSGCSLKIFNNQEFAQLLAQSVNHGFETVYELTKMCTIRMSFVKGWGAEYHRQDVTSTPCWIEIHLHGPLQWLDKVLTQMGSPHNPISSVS

Target: SMAD1 (human (endogenous in H9 hESCs)) (UniProt Q15797)
Assay: co-IP; nuclear extracts of hESCs differentiated in FLyA (SMAD2/3 pulldown) or FLyB (SMAD1 pulldown); western blot for BRA and EOMES; IgG as negative control; details in the supplementary methods

binding: binds
B1: brachyury (T, BRA) (protein, UniProt O15178 1-435)
chain: MSSPGTESAGKSLQYRVDHLLSAVENELQAGSEKGDPTERELRVGLEESELWLRFKELTNEMIVTKNGRRMFPVLKVNVSGLDPNAMYSFLLDFVAADNHRWKYVNGEWVPGGKPEPQAPSCVYIHPDSPNFGAHWMKAPVSFSKVKLTNKLNGGGQIMLNSLHKYEPRIHIVRVGGPQRMITSHCFPETQFIAVTAYQNEEITALKIKYNPFAKAFLDAKERSDHKEMMEEPGDSQQPGYSQWGWLLPGTSTLCPPANPHPQFGGALSLPSTHSCDRYPTLRSHRSSPYPSPYAHRNNSPTYSDNSPACLSMLQSHDNWSSLGMPAHPSMLPVSHNASPPTSSSQYPSLWSVSNGAVTPGSQAAAVSNGLGAQFFRGSPAHYTPLTHPVSAPSSSGSPLYEGAAAATDIVDSQYDAAAQGRLIASWTPVSPPSM

binding: binds
B2: eomesodermine (EOMES) (protein, UniProt O95936 1-686)
chain: MQLGEQLLVSSVNLPGAHFYPLESARGGSGGSAGHLPSAAPSPQKLDLDKASKKFSGSLSCEAVSGEPAAASAGAPAAMLSDTDAGDAFASAAAVAKPGPPDGRKGSPCGEEELPSAAAAAAAAAAAAAATARYSMDSLSSERYYLQSPGPQGSELAAPCSLFPYQAAAGAPHGPVYPAPNGARYPYGSMLPPGGFPAAVCPPGRAQFGPGAGAGSGAGGSSGGGGGPGTYQYSQGAPLYGPYPGAAAAGSCGGLGGLGVPGSGFRAHVYLCNRPLWLKFHRHQTEMIITKQGRRMFPFLSFNINGLNPTAHYNVFVEVVLADPNHWRFQGGKWVTCGKADNNMQGNKMYVHPESPNTGSHWMRQEISFGKLKLTNNKGANNNNTQMIVLQSLHKYQPRLHIVEVTEDGVEDLNEPSKTQTFTFSETQFIAVTAYQNTDITQLKIDHNPFAKGFRDNYDSSHQIVPGGRYGVQSFFPEPFVNTLPQARYYNGERTVPQTNGLLSPQQSEEVANPPQRWLVTPVQQPGTNKLDISSYESEYTSSTLLPYGIKSLPLQTSHALGYYPDPTFPAMAGWGGRGSYQRKMAAGLPWTSRTSPTVFSEDQLSKEKVKEEIGSSWIETPPSIKSLDSNDSGVYTSACKRRRLSPSNSSNENSPSIKCEDINAEEYSKDTSKGMGGYYAFYTTP
